Measurements reported in publication PMC7819943, “Rice protein-binding microarrays: a tool to detect cis-acting elements near promoter regions in rice”.
The list shows a part of the results.

Sequences of proteins named here, by UniProt entry; tags and fusion partners are left off.
UniProt Q0JBA9, entry or part of it: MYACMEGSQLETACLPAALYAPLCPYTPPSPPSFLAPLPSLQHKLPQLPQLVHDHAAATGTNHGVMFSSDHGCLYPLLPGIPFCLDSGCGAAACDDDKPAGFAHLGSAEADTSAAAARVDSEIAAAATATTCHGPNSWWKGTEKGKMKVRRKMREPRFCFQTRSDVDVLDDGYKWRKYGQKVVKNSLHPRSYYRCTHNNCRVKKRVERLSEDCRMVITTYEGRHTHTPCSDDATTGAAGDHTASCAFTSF

Molecular target: OsWRKY34 (Oryza sativa, UniProt Q0JBA9 1-250)
Assay: protein-binding microarray (RPBM); PBS, 2% BSA, 51.3 ng/ul salmon testes DNA, 50 uM zinc acetate, 200 nM TF, 25 C, 1 h; high values mean tight binding
Settings: protein: recombinant; tags: N-terminal polyhistidine and DsRed monomer fusion (pET32a); label: CyDye5-dUTP incorporated in the synthesized complementary strand; 3' TTTTT single-stranded linker to array surface; dsDNA, one strand shown
Method in brief: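 The binding signal is fluorescence intensity per array feature (arbitrary units). Readings came from an Axon 4000B scanner after a washed, 2% BSA-blocked, double-stranded custom Agilent array had been incubated for 1 h at 25 °C with 200 nM protein and 50 µM zinc acetate. The protein was a Ni–NTA-purified transcription factor fused N-terminally to polyhistidine and DsRed, expressed in E. coli BL21-CodonPlus.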

Sequence	binding signal
ATGTCGCTTTCCCACCTCTGCCCACCCTCACATGCCCCGTCGGAGTCACCTAGTGCAG	8640 fluorescence intensity (a.u.)
CCTCCCCGCATCCGGCCTCTGTCTTCGCCGCGCATGGCGGCGGAGTCACCTAGTGCAG	9600 fluorescence intensity (a.u.)
GGGTTAGCAATTCTCTAGAGTTTTTTTTCCTTTCGGCATACGGAGTCACCTAGTGCAG	9880 fluorescence intensity (a.u.)
GTAAGGGAGAGGGAGGGGTCATACCAACGTCCTTAAAAAACGGAGTCACCTAGTGCAG	10000 fluorescence intensity (a.u.)
CACTGGGTGTACTGGCTCGGTCCCTTCATCGGCGCCGGCCCGGAGTCACCTAGTGCAG	8420 fluorescence intensity (a.u.)
ACTTAGATTTTGCTCGTTGCTTTCAATCTCCATTACTGCTCGGAGTCACCTAGTGCAG	9280 fluorescence intensity (a.u.)
AAATCCACTTCACCTAGCAGCCGCTCTCACCTCCACGCGCCGGAGTCACCTAGTGCAG	10200 fluorescence intensity (a.u.)
AATTCTGGCGGGGTAGTTTTCTACATCATACACTGTGTAGCGGAGTCACCTAGTGCAG	8090 fluorescence intensity (a.u.)
GCTGATGACTTTTCTCCCGGTTTCATATTTTCTTTTAGAACGGAGTCACCTAGTGCAG	14100 fluorescence intensity (a.u.)
ATATATATATATATATATATATATATATATATACACAAGACGGAGTCACCTAGTGCAG	10500 fluorescence intensity (a.u.)
CGTCGCGTTCGCGTGCGAGGTGGTGGTGGTGGTGGCTGTACGGAGTCACCTAGTGCAG	9000 fluorescence intensity (a.u.)
GTTTTTTTGGTTGCAATGGAGTATTTCAGTTTGTAACATTCGGAGTCACCTAGTGCAG	8440 fluorescence intensity (a.u.)
GGGAGTAGTCTTCTCCTCGGTCCACGACAGTTCACATTACCGGAGTCACCTAGTGCAG	9110 fluorescence intensity (a.u.)
CATTTTTTTTTGCTATATTTCTCTCGATTCTTCTGTTCTTCGGAGTCACCTAGTGCAG	12500 fluorescence intensity (a.u.)
CCGCCGGCGACGGCCTCTCACATGCTCTGCAGCTGCAACTCGGAGTCACCTAGTGCAG	9060 fluorescence intensity (a.u.)
CGGGTGGTTTTCCATCGGTCCGGGCGGGGTCGCGTGCAATCGGAGTCACCTAGTGCAG	12500 fluorescence intensity (a.u.)
TATATATGCGGTTGGTCAGGCACTCCGGTCGTCTTCCTCGCGGAGTCACCTAGTGCAG	8550 fluorescence intensity (a.u.)
TATTTTCGTCCGGTTTTTTCCACTCACCAGTCACCACCCCCGGAGTCACCTAGTGCAG	8490 fluorescence intensity (a.u.)
CCATAGCAAGCAATTTGTCTAAAACTACCTGTCCTTTCATCGGAGTCACCTAGTGCAG	8660 fluorescence intensity (a.u.)
CCAGTTCATCCAGGGTCCACTTCCTCTACCCAGCTCCACTCGGAGTCACCTAGTGCAG	9040 fluorescence intensity (a.u.)
CCCATGTCCCATTTTAGATCCGCCACTGCCTATTCTATCTCGGAGTCACCTAGTGCAG	9030 fluorescence intensity (a.u.)

Nothing new here: entries from further up.
Sequence	binding signal
CCGCCGGCGACGGCCTCTCACATGCTCTGCAGCTGCAACTCGGAGTCACCTAGTGCAG	9060 fluorescence intensity (a.u.)
CGGGTGGTTTTCCATCGGTCCGGGCGGGGTCGCGTGCAATCGGAGTCACCTAGTGCAG	12500 fluorescence intensity (a.u.)
TATATATGCGGTTGGTCAGGCACTCCGGTCGTCTTCCTCGCGGAGTCACCTAGTGCAG	8550 fluorescence intensity (a.u.)

Later entries

Sequence	binding signal
CGCTGCTCTTCTCTTTTACTTTATCTCTTTAAAATATGTTCGGAGTCACCTAGTGCAG	8830 fluorescence intensity (a.u.)
TATTATCTTCCGTAAGTTGCACACAAGACCTTTATTTTATCGGAGTCACCTAGTGCAG	8900 fluorescence intensity (a.u.)
CTCCGCCATTCCCGCACCACATGCCGCTCTATCTCTCTCTCGGAGTCACCTAGTGCAG	12200 fluorescence intensity (a.u.)
AATTATTTTTCACTTTATCTACTTCCAATATAATTATTCTCGGAGTCACCTAGTGCAG	9140 fluorescence intensity (a.u.)
CTCTATCCTTAATTTTACAGCTGTTCTATAGAATGCAACACGGAGTCACCTAGTGCAG	8910 fluorescence intensity (a.u.)
GTTTTCTTCATGTGTTAACAATTGGCCAGCTTCAATCTGCCGGAGTCACCTAGTGCAG	10000 fluorescence intensity (a.u.)
CAGATGTTCTCCTGTTAAATGTCGCTTTTATAAATACCTCCGGAGTCACCTAGTGCAG	8480 fluorescence intensity (a.u.)
CGGCCGTCCGCCATCTGCAAAAGGTGTTTTTTCACATGCCCGGAGTCACCTAGTGCAG	8560 fluorescence intensity (a.u.)
TTCATCTTCATGCCTCCGTCGTCCTCCTAGTCCTCATCTCCGGAGTCACCTAGTGCAG	8440 fluorescence intensity (a.u.)
GATTCCGATCTGTACTATGTTTGTAGGGTTTGTATTTTTTCGGAGTCACCTAGTGCAG	8840 fluorescence intensity (a.u.)
AGGAGACGAGAGAGAGAGAGGGGAGGGGAGTGTGATGTGGCGGAGTCACCTAGTGCAG	8350 fluorescence intensity (a.u.)
GCTTACGTAGTACTCCATCATCTGCTCTTTTTCCTAACCACGGAGTCACCTAGTGCAG	12800 fluorescence intensity (a.u.)
TTTTGCCTAGTTCTCGTGTTGATTGTTGCCTAAGAAAGGACGGAGTCACCTAGTGCAG	9580 fluorescence intensity (a.u.)
CTAGTTTTGTTTCTTCACACCTTGCATGGCTTGCTCCTTTCGGAGTCACCTAGTGCAG	9790 fluorescence intensity (a.u.)
CATCCTCGAGAGCGTCTCCCTCGTCGCCCTATTCCTCTTACGGAGTCACCTAGTGCAG	10200 fluorescence intensity (a.u.)
CGCGCTCGTCTGGGCCTGCCTCTGGGTCGCGGCGCCGCCTCGGAGTCACCTAGTGCAG	8140 fluorescence intensity (a.u.)
ATATCCCTTCTCTTCCCTCATCTCTCCACCTCTTCCATCTCGGAGTCACCTAGTGCAG	8890 fluorescence intensity (a.u.)
GATGACTTTTTAACTTTATTGTTGCATCATCGCTCTGCACCGGAGTCACCTAGTGCAG	9480 fluorescence intensity (a.u.)
TCTCTTCTTTTTCTCATTCCATATCATCAAATGCTTCTACCGGAGTCACCTAGTGCAG	10600 fluorescence intensity (a.u.)
ATTATGTGCTAATAGCTTTCTAATTTTACGTGTTCAACTTCGGAGTCACCTAGTGCAG	8360 fluorescence intensity (a.u.)
CCATCAATTCTCCGATCCCATCTCGCTCTCGCCATCTGCTCGGAGTCACCTAGTGCAG	9870 fluorescence intensity (a.u.)
